Measurements from the supplement of paper PMC10849652.
The other results are listed elsewhere or left out.

By UniProt entry, the sequences of proteins in these tests, tags left out. Where a name states a change or a piece, a line headed by the entry shows the natural chain unless it says otherwise.
UniProt Q9BXS5: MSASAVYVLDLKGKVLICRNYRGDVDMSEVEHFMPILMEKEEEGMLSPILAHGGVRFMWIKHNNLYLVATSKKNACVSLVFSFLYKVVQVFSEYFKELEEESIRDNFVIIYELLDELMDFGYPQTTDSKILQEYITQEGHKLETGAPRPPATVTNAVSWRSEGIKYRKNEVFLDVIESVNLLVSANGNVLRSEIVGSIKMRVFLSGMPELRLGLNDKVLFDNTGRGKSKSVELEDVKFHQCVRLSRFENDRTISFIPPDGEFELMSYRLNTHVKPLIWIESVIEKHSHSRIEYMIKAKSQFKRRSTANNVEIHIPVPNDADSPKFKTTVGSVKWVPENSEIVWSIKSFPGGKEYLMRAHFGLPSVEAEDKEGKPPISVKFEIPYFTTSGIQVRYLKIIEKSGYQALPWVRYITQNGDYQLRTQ
UniProt Q96Q83: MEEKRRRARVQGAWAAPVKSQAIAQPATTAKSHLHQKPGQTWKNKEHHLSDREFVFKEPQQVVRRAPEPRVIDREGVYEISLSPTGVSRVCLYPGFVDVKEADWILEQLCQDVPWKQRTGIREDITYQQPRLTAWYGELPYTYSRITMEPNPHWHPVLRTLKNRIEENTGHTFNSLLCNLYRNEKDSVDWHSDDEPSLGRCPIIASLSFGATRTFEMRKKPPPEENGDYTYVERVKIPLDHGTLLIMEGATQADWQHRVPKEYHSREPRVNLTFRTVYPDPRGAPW
UniProt P08758: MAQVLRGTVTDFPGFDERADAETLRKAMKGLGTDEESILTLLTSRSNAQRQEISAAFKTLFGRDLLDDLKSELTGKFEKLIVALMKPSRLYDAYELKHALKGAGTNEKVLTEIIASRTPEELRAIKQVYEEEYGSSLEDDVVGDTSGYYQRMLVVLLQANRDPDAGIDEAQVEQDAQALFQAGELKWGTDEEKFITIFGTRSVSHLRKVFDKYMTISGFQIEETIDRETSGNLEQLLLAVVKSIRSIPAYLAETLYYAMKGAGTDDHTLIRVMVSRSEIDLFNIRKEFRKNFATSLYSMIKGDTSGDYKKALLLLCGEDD
UniProt Q6NXT1: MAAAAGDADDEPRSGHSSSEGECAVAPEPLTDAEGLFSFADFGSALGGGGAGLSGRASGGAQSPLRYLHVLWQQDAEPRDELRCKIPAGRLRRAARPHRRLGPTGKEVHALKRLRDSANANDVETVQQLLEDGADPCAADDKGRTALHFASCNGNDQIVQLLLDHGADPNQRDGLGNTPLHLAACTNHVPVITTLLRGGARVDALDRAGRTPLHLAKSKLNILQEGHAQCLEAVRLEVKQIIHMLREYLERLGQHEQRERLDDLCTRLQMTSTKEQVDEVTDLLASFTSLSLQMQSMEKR
UniProt Q96NW4, whole entry, looked up: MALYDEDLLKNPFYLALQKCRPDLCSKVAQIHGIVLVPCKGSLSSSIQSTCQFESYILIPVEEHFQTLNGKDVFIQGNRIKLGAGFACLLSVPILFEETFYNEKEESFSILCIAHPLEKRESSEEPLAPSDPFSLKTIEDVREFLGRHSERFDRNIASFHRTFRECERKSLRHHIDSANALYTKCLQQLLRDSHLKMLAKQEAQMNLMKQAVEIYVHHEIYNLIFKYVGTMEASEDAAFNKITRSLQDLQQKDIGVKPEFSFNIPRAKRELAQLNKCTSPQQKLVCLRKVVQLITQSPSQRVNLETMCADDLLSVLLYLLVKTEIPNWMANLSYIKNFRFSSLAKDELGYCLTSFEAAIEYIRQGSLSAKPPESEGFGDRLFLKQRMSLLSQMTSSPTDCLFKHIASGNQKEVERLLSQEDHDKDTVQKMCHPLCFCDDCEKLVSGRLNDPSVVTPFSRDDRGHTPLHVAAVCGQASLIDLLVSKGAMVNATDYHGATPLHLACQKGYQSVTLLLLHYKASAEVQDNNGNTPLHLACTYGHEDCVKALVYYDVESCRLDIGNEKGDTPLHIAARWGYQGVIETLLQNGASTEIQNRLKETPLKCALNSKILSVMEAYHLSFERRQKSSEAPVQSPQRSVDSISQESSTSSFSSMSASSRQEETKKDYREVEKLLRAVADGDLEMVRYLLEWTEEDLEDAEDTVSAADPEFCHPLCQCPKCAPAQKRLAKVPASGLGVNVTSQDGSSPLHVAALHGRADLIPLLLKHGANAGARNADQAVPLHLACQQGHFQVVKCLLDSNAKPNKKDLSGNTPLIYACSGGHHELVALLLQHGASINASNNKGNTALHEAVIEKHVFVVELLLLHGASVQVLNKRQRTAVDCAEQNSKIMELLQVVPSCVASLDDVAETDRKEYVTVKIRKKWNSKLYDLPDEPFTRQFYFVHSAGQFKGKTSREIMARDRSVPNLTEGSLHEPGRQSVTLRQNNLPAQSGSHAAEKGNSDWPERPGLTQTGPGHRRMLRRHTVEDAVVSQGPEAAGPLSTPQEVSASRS
UniProt Q9P2R3: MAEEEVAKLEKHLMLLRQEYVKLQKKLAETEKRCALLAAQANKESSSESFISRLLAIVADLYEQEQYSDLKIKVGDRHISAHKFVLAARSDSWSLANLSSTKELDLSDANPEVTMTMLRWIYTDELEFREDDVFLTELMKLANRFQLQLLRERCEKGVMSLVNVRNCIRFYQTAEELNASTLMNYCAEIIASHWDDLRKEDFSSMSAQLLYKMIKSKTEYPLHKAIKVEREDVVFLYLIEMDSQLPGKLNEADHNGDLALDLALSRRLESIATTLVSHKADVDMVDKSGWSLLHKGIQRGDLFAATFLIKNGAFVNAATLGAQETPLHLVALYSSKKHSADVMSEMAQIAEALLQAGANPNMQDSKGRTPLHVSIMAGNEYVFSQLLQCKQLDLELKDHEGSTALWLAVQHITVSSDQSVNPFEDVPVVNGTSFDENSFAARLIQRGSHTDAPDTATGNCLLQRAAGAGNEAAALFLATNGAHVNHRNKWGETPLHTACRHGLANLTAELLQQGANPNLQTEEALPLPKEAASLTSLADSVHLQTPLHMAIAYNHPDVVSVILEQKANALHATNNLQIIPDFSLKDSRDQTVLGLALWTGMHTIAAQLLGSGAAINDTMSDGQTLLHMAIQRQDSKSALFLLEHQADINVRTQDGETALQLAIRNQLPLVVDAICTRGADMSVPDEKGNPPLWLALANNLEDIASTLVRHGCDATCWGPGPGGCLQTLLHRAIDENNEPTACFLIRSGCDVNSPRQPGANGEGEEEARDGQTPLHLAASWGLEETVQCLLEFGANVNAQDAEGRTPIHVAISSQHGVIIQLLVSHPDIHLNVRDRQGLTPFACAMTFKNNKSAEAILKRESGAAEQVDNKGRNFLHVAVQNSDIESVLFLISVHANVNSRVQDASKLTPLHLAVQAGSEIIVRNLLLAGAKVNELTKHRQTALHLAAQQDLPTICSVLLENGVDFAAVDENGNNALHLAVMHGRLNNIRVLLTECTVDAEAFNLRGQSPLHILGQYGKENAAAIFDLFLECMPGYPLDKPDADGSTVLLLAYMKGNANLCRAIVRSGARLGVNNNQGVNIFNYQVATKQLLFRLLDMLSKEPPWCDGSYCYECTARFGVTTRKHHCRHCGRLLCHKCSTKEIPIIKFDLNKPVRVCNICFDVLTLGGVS
UniProt P39687: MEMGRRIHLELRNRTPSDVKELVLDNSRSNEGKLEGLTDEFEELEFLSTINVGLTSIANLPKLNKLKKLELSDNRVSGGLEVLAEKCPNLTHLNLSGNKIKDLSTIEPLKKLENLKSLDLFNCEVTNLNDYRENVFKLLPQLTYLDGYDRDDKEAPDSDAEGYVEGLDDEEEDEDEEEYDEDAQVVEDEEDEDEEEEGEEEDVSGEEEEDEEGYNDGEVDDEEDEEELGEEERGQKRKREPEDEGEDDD
UniProt Q02252: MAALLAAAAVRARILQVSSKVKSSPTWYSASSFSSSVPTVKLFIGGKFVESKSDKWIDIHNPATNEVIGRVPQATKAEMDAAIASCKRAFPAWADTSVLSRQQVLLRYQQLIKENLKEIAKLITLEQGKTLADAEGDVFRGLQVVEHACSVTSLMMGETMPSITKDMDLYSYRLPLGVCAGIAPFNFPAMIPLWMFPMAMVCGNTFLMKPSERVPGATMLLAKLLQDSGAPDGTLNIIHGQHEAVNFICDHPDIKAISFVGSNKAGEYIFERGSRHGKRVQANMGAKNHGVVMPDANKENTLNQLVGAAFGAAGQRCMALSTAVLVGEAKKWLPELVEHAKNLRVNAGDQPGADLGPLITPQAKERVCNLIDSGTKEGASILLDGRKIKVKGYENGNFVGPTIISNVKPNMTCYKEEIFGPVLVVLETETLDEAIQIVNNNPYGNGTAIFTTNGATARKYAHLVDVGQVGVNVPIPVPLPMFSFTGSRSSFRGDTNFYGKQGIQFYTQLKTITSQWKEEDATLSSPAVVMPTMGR
UniProt Q9H553: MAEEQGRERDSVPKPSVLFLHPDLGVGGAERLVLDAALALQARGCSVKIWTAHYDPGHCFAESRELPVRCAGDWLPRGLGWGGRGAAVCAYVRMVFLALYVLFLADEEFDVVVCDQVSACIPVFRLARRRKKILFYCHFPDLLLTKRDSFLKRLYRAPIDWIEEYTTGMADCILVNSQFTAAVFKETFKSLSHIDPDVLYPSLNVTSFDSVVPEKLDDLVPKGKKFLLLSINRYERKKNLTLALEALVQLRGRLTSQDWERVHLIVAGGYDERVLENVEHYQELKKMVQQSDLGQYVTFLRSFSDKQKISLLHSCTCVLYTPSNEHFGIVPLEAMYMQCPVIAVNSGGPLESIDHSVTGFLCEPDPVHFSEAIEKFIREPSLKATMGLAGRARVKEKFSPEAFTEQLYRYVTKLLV
UniProt Q9UJX4, whole entry, looked up: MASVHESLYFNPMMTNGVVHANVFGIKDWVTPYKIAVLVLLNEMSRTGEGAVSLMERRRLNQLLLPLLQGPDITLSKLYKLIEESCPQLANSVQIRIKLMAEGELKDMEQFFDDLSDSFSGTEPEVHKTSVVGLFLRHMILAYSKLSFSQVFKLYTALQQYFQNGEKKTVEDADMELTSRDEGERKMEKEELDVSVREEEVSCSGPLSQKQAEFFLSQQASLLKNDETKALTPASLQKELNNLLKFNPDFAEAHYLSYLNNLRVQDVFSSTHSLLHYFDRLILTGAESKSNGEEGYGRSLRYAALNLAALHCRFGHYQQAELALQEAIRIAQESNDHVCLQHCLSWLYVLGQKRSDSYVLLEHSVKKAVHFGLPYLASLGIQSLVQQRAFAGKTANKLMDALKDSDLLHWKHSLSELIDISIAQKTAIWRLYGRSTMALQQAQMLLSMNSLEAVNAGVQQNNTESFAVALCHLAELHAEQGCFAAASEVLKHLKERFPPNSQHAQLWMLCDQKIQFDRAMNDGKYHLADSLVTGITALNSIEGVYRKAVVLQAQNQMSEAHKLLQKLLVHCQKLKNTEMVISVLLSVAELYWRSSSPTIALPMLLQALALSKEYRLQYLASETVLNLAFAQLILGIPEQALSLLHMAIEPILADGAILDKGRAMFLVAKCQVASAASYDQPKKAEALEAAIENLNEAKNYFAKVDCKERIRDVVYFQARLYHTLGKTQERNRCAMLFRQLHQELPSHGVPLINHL
UniProt Q9NXR5: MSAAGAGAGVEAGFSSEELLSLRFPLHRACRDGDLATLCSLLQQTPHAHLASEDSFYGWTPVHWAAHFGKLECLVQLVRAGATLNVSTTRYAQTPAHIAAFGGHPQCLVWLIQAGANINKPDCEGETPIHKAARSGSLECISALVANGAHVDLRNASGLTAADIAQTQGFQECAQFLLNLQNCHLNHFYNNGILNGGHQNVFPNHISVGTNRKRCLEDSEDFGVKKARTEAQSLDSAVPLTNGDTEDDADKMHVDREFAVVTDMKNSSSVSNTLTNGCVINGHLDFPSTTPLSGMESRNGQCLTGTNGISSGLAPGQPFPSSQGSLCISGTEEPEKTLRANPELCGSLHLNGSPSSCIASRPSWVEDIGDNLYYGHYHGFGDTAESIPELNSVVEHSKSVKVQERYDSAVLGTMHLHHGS
UniProt Q9UJX3, whole entry, looked up: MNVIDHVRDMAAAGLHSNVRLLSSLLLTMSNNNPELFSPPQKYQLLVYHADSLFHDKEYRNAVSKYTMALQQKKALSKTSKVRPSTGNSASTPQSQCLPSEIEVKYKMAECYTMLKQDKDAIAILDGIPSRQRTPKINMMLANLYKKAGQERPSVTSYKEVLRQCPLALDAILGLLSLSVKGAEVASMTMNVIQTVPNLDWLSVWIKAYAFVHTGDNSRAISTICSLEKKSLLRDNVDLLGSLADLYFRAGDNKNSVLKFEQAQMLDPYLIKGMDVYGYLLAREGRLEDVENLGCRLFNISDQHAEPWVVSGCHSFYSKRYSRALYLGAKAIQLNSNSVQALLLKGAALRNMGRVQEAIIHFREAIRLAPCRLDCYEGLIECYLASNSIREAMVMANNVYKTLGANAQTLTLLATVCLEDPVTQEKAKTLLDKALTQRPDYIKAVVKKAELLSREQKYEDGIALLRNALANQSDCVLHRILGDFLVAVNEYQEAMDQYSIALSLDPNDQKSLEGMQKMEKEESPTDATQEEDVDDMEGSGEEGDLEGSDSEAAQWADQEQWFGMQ

Assays:
Assay in all cases: log2 fold change, soluble protein after heating vs DMSO (PISA); higher = thermal stabilisation; K562 lysate, 10 uM; active = over 0.2 and 3.5 SD of the protein, either way, in both replicates (recomputed)
nilotinib = compound: Cc1cn(-c2cc(NC(=O)c3ccc(C)c(Nc4nccc(-c5cccnc5)n4)c3)cc(C(F)(F)F)c2)cn1 [nilotinib]
In short: (§1)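 Quantification was by TMTpro 16plex LC-MS/MS with equalised channel sums, applied to the supernatant after 21,000xg for 90 min. Samples were crude K562 extract at 1 mg/mL protein in PBS pH 7.4 with 1 mM MgCl2, treated with 10 μM compound for 30 min, heated for 3 min across 48°C-58°C, pooled and brought to 0.5% NP-40 at 4°C. Values are log-two fold changes in thermal stability relative to solvent controls, from duplicates.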

[1] = compound: Cc1nc(Nc2n[nH]c3c2CN(C(=O)N[C@H](CN(C)C)c2ccccc2)C3(C)C)c2sccc2n1
In short: as §1

dasatinib = compound: Cc1nc(Nc2ncc(C(=O)Nc3c(C)cccc3Cl)s2)cc(N2CCN(CCO)CC2)n1 [dasatinib]
In short: as §1

[2] = compound: Cc1ncc(-c2ccnc(Nc3ccc(S(C)(=O)=O)cc3)n2)n1C(C)C
In short: as §1

[3] = compound: Cn1cc(-c2ccc3c(c2)CCN3C(=O)Cc2cccc(C(F)(F)F)c2)c2c(N)ncnc21
In short: as §1

quisinostat = compound: Cn1cc(CNCC2CCN(c3ncc(C(=O)NO)cn3)CC2)c2ccccc21 [quisinostat]
In short: as §1

tipifarnib = compound: Cn1cncc1[C@@](N)(c1ccc(Cl)cc1)c1ccc2c(c1)c(-c1cccc(Cl)c1)cc(=O)n2C [tipifarnib]
In short: as §1

[4] = compound: NC(=O)Nc1cc(-c2cccc(F)c2)sc1C(=O)N[C@H]1CCCNC1
In short: as §1

[5] = compound: NC(=O)c1cnc(N[C@@H]2CCCC[C@@H]2N)nc1Nc1cccc(-n2nccn2)c1
In short: as §1

[6] = compound: NC1(c2ccc(-c3nc4ccn5c(=O)[nH]nc5c4cc3-c3ccccc3)cc2)CCC1
In short: as §1

[7] = compound: NCC(=O)Nc1ccc(-n2nc(C(F)(F)F)cc2-c2ccc3c(ccc4ccccc43)c2)cc1
In short: as §1

vorinostat = compound: O=C(CCCCCCC(=O)Nc1ccccc1)NO [vorinostat]
In short: as §1

silmitasertib = compound: O=C(O)c1ccc2c(c1)nc(Nc1cccc(Cl)c1)c1ccncc12 [silmitasertib]
In short: as §1

[8] = compound: O=C1NC(=O)C(c2cnc3ccccn23)=C1c1cn2c3c(cc(F)cc13)CN(C(=O)N1CCCCC1)CC2
In short: as §1

entospletinib = compound: c1cn2cc(-c3ccc4cn[nH]c4c3)nc(Nc3ccc(N4CCOCC4)cc3)c2n1 [entospletinib]
In short: as §1

Measured: log2 fold change

ALG6 (UniProt Q9Y672)
inactive: nilotinib 0.033 | [1] -0.03 | dasatinib -0.112 | [2] -0.032 | [3] -0.043 | quisinostat -0.013 | tipifarnib 0 | [4] 0.058 | [5] 0.075 | [6] -0.041 | [7] -0.258 | vorinostat 0.042 | silmitasertib -0.013 | [8] 0.031 | entospletinib 0.047

AMBRA1 isoform 5 (UniProt Q9C0C7)
inactive: nilotinib 0.08 | [1] 0.063 | dasatinib -0.164 | [2] -0.139 | [3] 0.201 | quisinostat -0.01 | tipifarnib -0.055 | [4] 0.03 | [5] 0.029 | [6] 0.066 | [7] 0.062 | vorinostat -0.088 | silmitasertib 0.108 | [8] -0.032 | entospletinib 0

AP1M1 (UniProt Q9BXS5)
inactive: nilotinib -0.034 | [1] 0.015 | dasatinib -0.015 | [2] 0.009 | [3] 0.004 | quisinostat 0.028 | tipifarnib 0.007 | [4] -0.013 | [5] -0.014 | [6] 0.021 | [7] 0 | vorinostat 0.099 | silmitasertib 0.012 | [8] -0.018 | entospletinib -0.006

ALKBH5 (UniProt Q6P6C2)
inactive: nilotinib 0.151 | [1] -0.099 | dasatinib 0.057 | [2] 0.018 | [3] -0.008 | quisinostat 0.139 | tipifarnib 0.106 | [4] 0.002 | [5] 0.078 | [6] -0.071 | [7] 0.054 | vorinostat 0.038 | silmitasertib -0.094 | [8] 0.062 | entospletinib 0.003

ANKRD13A (UniProt Q8IZ07)
inactive: nilotinib -0.069 | [1] -0.002 | dasatinib 0.036 | [2] -0.032 | [3] 0.023 | quisinostat -0.039 | tipifarnib 0.011 | [4] 0.018 | [5] 0.012 | [6] 0.004 | [7] 0.024 | vorinostat -0.075 | silmitasertib 0.003 | [8] -0.01 | entospletinib 0

ANXA13 isoform 2 (UniProt P27216)
inactive: nilotinib -0.001 | [1] 0.005 | dasatinib 0.007 | [2] -0.079 | [3] 0.104 | quisinostat -0.022 | tipifarnib 0.123 | [4] 0.023 | [5] 0.032 | [6] 0.078 | [7] -0.084 | vorinostat 0.004 | silmitasertib 0.024 | [8] 0.02

ALKBH3 (UniProt Q96Q83)
inactive: nilotinib -0.024 | [1] 0 | dasatinib 0.004 | [2] 0.109 | [3] 0.029 | quisinostat -0.007 | tipifarnib -0.241 | [4] 0.01 | [5] -0.019 | [6] -0.027 | [7] 0.006 | vorinostat 0.104 | silmitasertib -0.054 | [8] 0.003 | entospletinib -0.04

ALYREF (UniProt Q86V81)
inactive: nilotinib -0.162 | [1] 0.04 | dasatinib -0.016 | [2] -0.122 | [3] 0.014 | quisinostat 0.064 | tipifarnib -0.095 | [4] -0.023 | [5] -0.013 | [6] -0.026 | [7] 0.029 | vorinostat 0.117 | silmitasertib 0.018 | [8] 0.035 | entospletinib 0.008

ANXA5 (UniProt P08758)
inactive: nilotinib 0.031 | [1] -0.008 | dasatinib -0.009 | [2] -0.067 | [3] 0.022 | quisinostat 0.111 | tipifarnib 0.019 | [4] 0.018 | [5] 0.01 | [6] 0.012 | [7] -0.008 | vorinostat 0.056 | silmitasertib 0.021 | [8] -0.017 | entospletinib 0.006

ANKRD54 (UniProt Q6NXT1)
active: vorinostat -0.245
inactive: nilotinib 0.053 | [1] -0.003 | dasatinib -0.013 | [2] 0.05 | [3] -0.018 | quisinostat -0.024 | tipifarnib 0.019 | [4] -0.013 | [5] 0 | [6] 0.04 | [7] 0.023 | silmitasertib 0.007 | [8] -0.076 | entospletinib -0.006

ANXA3 (UniProt P12429)
inactive: nilotinib 0.02 | [1] 0.015 | dasatinib 0.029 | [2] -0.032 | [3] 0.023 | quisinostat 0.033 | tipifarnib -0.02 | [4] -0.016 | [5] 0.008 | [6] 0.039 | [7] -0.004 | vorinostat 0.002 | silmitasertib -0.003 | [8] -0.035 | entospletinib 0.042

ANKRD27 (UniProt Q96NW4)
active: vorinostat -0.451
inactive: nilotinib 0.016 | [1] 0.049 | dasatinib -0.01 | [2] 0.061 | [3] -0.023 | quisinostat -0.177 | tipifarnib -0.067 | [4] 0.05 | [5] 0.025 | [6] -0.033 | [7] -0.066 | silmitasertib -0.025 | [8] 0.022 | entospletinib 0.01

ANK1 isoform 14 (UniProt P16157)
inactive: nilotinib 0.015 | [1] -0.014 | dasatinib -0.037 | [2] -0.004 | [3] 0.012 | quisinostat -0.037 | tipifarnib 0.016 | [4] 0.068 | [5] 0.001 | [6] -0.027 | [7] 0.037 | vorinostat -0.18 | silmitasertib 0.022 | [8] 0.025 | entospletinib 0.006

Pulled one by one from the entries so far, two records:
ANKRD54 (UniProt Q6NXT1)
active: vorinostat -0.245
inactive: nilotinib 0.053 | [1] -0.003 | dasatinib -0.013 | [2] 0.05 | [3] -0.018 | quisinostat -0.024 | tipifarnib 0.019 | [4] -0.013 | [5] 0 | [6] 0.04 | [7] 0.023 | silmitasertib 0.007 | [8] -0.076 | entospletinib -0.006

ANXA5 (UniProt P08758)
inactive: nilotinib 0.031 | [1] -0.008 | dasatinib -0.009 | [2] -0.067 | [3] 0.022 | quisinostat 0.111 | tipifarnib 0.019 | [4] 0.018 | [5] 0.01 | [6] 0.012 | [7] -0.008 | vorinostat 0.056 | silmitasertib 0.021 | [8] -0.017 | entospletinib 0.006

Remaining list, next part.

ANKFY1 isoform 4 (UniProt Q9P2R3)
inactive: nilotinib 0.019 | [1] -0.023 | dasatinib -0.038 | [2] 0 | [3] 0.016 | quisinostat -0.066 | tipifarnib -0.006 | [4] -0.002 | [5] -0.013 | [6] -0.02 | [7] 0.014 | vorinostat 0 | silmitasertib -0.004 | [8] 0.003 | entospletinib 0.027

ANP32A (UniProt P39687)
active: [6] -0.359
inactive: nilotinib -0.003 | [1] 0.03 | dasatinib 0.125 | [2] -0.011 | [3] -0.039 | quisinostat -0.006 | tipifarnib 0.002 | [4] -0.097 | [5] 0.012 | [7] -0.005 | vorinostat 0.08 | silmitasertib 0.063 | [8] -0.027 | entospletinib 0.026

ALDH6A1 (UniProt Q02252)
inactive: nilotinib -0.053 | [1] 0.161 | dasatinib -0.144 | [2] -0.022 | [3] 0.06 | quisinostat -0.027 | tipifarnib -0.026 | [4] 0.018 | [5] -0.038 | [6] -0.013 | [7] -0.041 | vorinostat -0.046 | silmitasertib 0.042 | [8] 0.096 | entospletinib 0.035

ANAPC1 (UniProt Q9H1A4)
inactive: nilotinib 0.017 | [1] -0.016 | dasatinib -0.011 | [2] -0.016 | [3] 0.011 | quisinostat -0.028 | tipifarnib 0 | [4] 0.031 | [5] -0.002 | [6] -0.015 | [7] 0.008 | vorinostat -0.145 | silmitasertib 0.01 | [8] -0.004 | entospletinib 0.015

ALG2 (UniProt Q9H553)
inactive: nilotinib -0.017 | [1] 0.031 | dasatinib -0.01 | [2] -0.041 | [3] -0.023 | quisinostat -0.052 | tipifarnib -0.06 | [4] -0.012 | [5] 0.003 | [6] -0.049 | [7] 0.05 | vorinostat 0.038 | silmitasertib 0.006 | [8] -0.046 | entospletinib -0.027

ANAPC5 (UniProt Q9UJX4)
inactive: nilotinib 0.029 | [1] -0.016 | dasatinib -0.026 | [2] -0.002 | [3] 0.003 | quisinostat -0.002 | tipifarnib -0.019 | [4] 0.054 | [5] 0.006 | [6] -0.013 | [7] 0.023 | vorinostat -0.136 | silmitasertib 0.034 | [8] 0.042 | entospletinib 0.008

ANKRD10 (UniProt Q9NXR5)
active: vorinostat -0.589
inactive: nilotinib -0.042 | [1] -0.021 | dasatinib -0.05 | [2] 0.021 | [3] 0.012 | quisinostat 0.001 | tipifarnib -0.028 | [4] 0.036 | [5] 0.168 | [6] -0.029 | [7] 0 | silmitasertib 0.037 | [8] -0.066

ANAPC7 (UniProt Q9UJX3)
active: vorinostat -0.218
inactive: nilotinib -0.004 | [1] -0.006 | dasatinib -0.004 | [2] 0.008 | [3] 0.02 | quisinostat -0.054 | tipifarnib -0.019 | [4] 0.03 | [5] 0 | [6] -0.018 | [7] -0.035 | silmitasertib 0.023 | [8] 0.007 | entospletinib 0.046
